From article PMC8633983, “GTP binding to translation factor eIF2B stimulates its guanine nucleotide exchange activity” (iScience, 2021)
Results are given in words; binding and its absence hold for the method and conditions named. Some binding calls cover weakened binding; strength is not graded here.

Sequences of proteins named here, by UniProt entry; tags and fusion partners are left off.
UniProt P32501: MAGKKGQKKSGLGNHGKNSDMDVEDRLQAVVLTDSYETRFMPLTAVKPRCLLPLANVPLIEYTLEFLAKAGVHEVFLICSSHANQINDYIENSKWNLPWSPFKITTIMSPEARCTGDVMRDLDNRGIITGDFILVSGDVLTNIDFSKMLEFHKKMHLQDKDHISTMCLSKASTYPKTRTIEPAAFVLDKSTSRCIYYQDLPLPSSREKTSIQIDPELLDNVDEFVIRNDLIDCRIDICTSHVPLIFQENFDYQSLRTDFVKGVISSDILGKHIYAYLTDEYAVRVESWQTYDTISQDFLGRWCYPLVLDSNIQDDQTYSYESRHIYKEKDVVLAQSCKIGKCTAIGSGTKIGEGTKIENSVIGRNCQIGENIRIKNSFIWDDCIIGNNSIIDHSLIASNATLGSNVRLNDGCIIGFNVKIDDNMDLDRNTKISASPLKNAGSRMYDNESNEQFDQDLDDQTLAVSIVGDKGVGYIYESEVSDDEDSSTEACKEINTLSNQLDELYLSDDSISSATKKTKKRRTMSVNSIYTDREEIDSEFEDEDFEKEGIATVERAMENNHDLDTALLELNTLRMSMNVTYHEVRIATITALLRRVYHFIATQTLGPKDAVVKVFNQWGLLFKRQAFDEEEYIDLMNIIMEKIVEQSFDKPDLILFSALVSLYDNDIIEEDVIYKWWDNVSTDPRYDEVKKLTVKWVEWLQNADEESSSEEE

Target: T1, eIF2Bγ (S. cerevisiae) (UniProt P09032)
T1 sequence: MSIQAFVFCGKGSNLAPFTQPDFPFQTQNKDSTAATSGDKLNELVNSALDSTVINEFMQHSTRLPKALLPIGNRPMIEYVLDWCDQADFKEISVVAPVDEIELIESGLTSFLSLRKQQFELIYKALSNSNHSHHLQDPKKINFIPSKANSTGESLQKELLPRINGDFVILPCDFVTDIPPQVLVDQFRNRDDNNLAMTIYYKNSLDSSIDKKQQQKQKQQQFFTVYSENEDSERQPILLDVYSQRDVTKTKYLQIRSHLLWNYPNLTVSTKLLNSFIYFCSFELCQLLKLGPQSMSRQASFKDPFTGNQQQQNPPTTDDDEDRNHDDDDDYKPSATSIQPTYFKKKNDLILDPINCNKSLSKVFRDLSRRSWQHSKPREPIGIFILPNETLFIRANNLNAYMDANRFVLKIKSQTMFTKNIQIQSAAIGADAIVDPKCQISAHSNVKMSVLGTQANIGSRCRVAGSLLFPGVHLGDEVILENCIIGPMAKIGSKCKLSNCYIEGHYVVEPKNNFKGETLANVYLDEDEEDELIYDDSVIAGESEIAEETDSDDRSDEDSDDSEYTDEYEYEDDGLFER
Assay: co-purification of a sub-complex; purified eIF2Bγε sub-complex, used in the GTP filter binding assay; its purification is not described

binding: binds
Substance: eIF2Bε (from UniProt P32501 1-712)
